# Source: PubChem BioAssay AID248 (DTP/NCI, 2004)
# The list shows only some results of the screen, not a fair sample: it gathers tests that were run many times, whatever their T/C, doses with no T/C, and many T/C values between a quarter and a half above the control. Further doses and runs are listed elsewhere. T/C: endpoint of the treated group in % of that of the vehicle group. Some entries give survivors of the animals treated and no T/C: the source files T/C as zero there, which appears to mark a toxic dose or a test without result, not a measured value. Some survivor counts are full or nearly so, which does not show that the dose was tolerated: the source hardly ever lists a survival T/C far under the control, and the zero likely stands for such cases as well. Counts of survivors are from the toxicity check (mostly the fifth day) where no day follows; animals may have died later. Schedule codes are those of the source, read here as Q, the interval in days (D) or hours (H), X, the number of doses. Some schedules carry Z or #; the key to these is not given. Some structures stand for samples that the source files as different forms (salt, stereo form or complex); doses refer to the form tested. Some entries hold several experiments; their values stand side by side, smallest first. Where survival is the endpoint, the PubChem record calls one and a half times the control and up active, and a quarter to a half above the control has no call in these data; cut-offs in other NCI protocols can differ. Counts like (3×) say how often a value occurs here. Some T/C values are followed by the survivors on the day toxicity was checked, most often the fifth; without a count, all were alive then.
# System: L1210 leukemia ip in BDF1 mice, survival T/C
# Assay: NCI In Vivo Anticancer Drug Screen. Data for tumor model L1210 Leukemia (intraperitoneal) in B6D2F1 (BDF1) mice
# Conditions: higher T/C = longer survival
# [1] = T/C endpoint: mean survival time, dose: 200.0 mg/kg/injection, schedule: Q01DX001 (ip), vehicle: saline
# [2] = T/C endpoint: mean survival time, dose: 400.0 mg/kg/injection, schedule: Q01DX001 (ip), vehicle: carboxymethylcellulose (CMC)
# [3] = T/C endpoint: mean survival time, dose: 400.0 mg/kg/injection, schedule: Q01DX001 (ip), vehicle: saline
# [4] = T/C endpoint: mean survival time, dose: 200.0 mg/kg/injection, schedule: Q01DX009 (ip), vehicle: Klucel (hydroxypropylcellulose) (HPC)
# [5] = T/C endpoint: mean survival time, dose: 400.0 mg/kg/injection, schedule: Q01DX009 (ip), vehicle: Klucel (hydroxypropylcellulose) (HPC)
# [6] = T/C endpoint: mean survival time, dose: 320.0 mg/kg/injection, schedule: Q01DX009 (ip), vehicle: saline
smiles,measurement,setting,value
NS(=O)(=O)c1ncnc2nc[nH]c12,T/C,"T/C endpoint: mean survival time, dose: 15.0 mg/kg/injection, schedule: Q01DX Z (ip), vehicle: methylcellulose (MC)",125 % of control
same,T/C,"T/C endpoint: mean survival time, dose: 20.0 mg/kg/injection, schedule: Q01DX Z (ip), vehicle: methylcellulose (MC)",125 % of control
same,T/C,"T/C endpoint: mean survival time, dose: 25.0 mg/kg/injection, schedule: Q01DX Z (ip), vehicle: methylcellulose (MC)",128 % of control
same,T/C,"T/C endpoint: mean survival time, dose: 33.0 mg/kg/injection, schedule: Q01DX Z (ip), vehicle: carboxymethylcellulose (CMC)",134 % of control
same,T/C,"T/C endpoint: mean survival time, dose: 37.5 mg/kg/injection, schedule: Q01DX009 (ip), vehicle: saline with Tween-80",149 % of control
same,T/C,"T/C endpoint: mean survival time, dose: 45.0 mg/kg/injection, schedule: Q04DX003 (ip), vehicle: saline",129 % of control
same,T/C,"T/C endpoint: mean survival time, dose: 50.0 mg/kg/injection, schedule: Q01DX001 (ip), vehicle: carboxymethylcellulose (CMC)",131 % of control
same,T/C,"T/C endpoint: mean survival time, dose: 50.0 mg/kg/injection, schedule: Q01DX Z (ip), vehicle: methylcellulose (MC)",131 % of control
same,T/C,"T/C endpoint: mean survival time, dose: 56.25 mg/kg/injection, schedule: Q01DX009 (ip), vehicle: saline",148 % of control [4 of 6 alive]
same,T/C,"T/C endpoint: mean survival time, dose: 66.0 mg/kg/injection, schedule: Q04DX003 (ip), vehicle: saline",131 and 132 % of control
same,T/C,"T/C endpoint: mean survival time, dose: 75.0 mg/kg/injection, schedule: Q01DX001 (ip), vehicle: carboxymethylcellulose (CMC)",134 % of control
same,T/C,"T/C endpoint: mean survival time, dose: 100.0 mg/kg/injection, schedule: Q01DX001 (ip), vehicle: carboxymethylcellulose (CMC)",127 % of control
same,T/C,"T/C endpoint: mean survival time, dose: 100.0 mg/kg/injection, schedule: Q01DX Z (ip), vehicle: methylcellulose (MC)",131 % of control
same,T/C,"T/C endpoint: mean survival time, dose: 100.0 mg/kg/injection, schedule: Q04DX003 (ip), vehicle: saline",125 (2×) and 134 % of control
same,T/C,"T/C endpoint: mean survival time, dose: 114.0 mg/kg/injection, schedule: Q01DX Z (ip), vehicle: carboxymethylcellulose (CMC)",132 % of control
same,survivor count,"T/C endpoint: mean survival time, dose: 150.0 mg/kg/injection, schedule: Q01DX009 (ip), vehicle: saline with Tween-80",1 of 6
same,T/C,"T/C endpoint: mean survival time, dose: 150.0 mg/kg/injection, schedule: Q04DX003 (ip), vehicle: saline",131 [5 of 6 alive] and 135 % of control [5 of 6 alive]
same,survivor count,"T/C endpoint: mean survival time, dose: 170.0 mg/kg/injection, schedule: Q01DX Z (ip), vehicle: carboxymethylcellulose (CMC)",3 of 6
same,survivor count,"T/C endpoint: mean survival time, dose: 200.0 mg/kg/injection, schedule: Q01DX001 (ip), vehicle: carboxymethylcellulose (CMC)",1 of 4
same,survivor count,[1],3 of 6
same,survivor count,"T/C endpoint: mean survival time, dose: 225.0 mg/kg/injection, schedule: Q04DX003 (ip), vehicle: saline",5 of 6
same,survivor count,"T/C endpoint: mean survival time, dose: 255.0 mg/kg/injection, schedule: Q01DX Z (ip), vehicle: carboxymethylcellulose (CMC)",0 of 6
same,survivor count,"T/C endpoint: mean survival time, dose: 340.0 mg/kg/injection, schedule: Q04DX003 (ip), vehicle: saline",1 of 6
same,survivor count,[2],0 of 4
same,survivor count,[3],1 of 6
O=[As](O)(CC(O)COc1ccc(Cl)cc1Cl)c1ccc(Cl)cc1 (stereo not drawn),survivor count,"T/C endpoint: mean survival time, dose: 25.0 mg/kg/injection, schedule: Q01DX001 (ip), vehicle: saline with Tween-80",0 of 6
same,survivor count,"T/C endpoint: mean survival time, dose: 50.0 mg/kg/injection, schedule: Q01DX001 (ip), vehicle: saline with Tween-80",0 of 6
same,survivor count,"T/C endpoint: mean survival time, dose: 100.0 mg/kg/injection, schedule: Q01DX001 (ip), vehicle: saline with Tween-80",0 of 6
same,survivor count,"T/C endpoint: mean survival time, dose: 200.0 mg/kg/injection, schedule: Q01DX001 (ip), vehicle: saline with Tween-80",0 of 6
same,survivor count,"T/C endpoint: mean survival time, dose: 400.0 mg/kg/injection, schedule: Q01DX001 (ip), vehicle: saline with Tween-80",0 of 6
CC(=O)Oc1c(C)c(C)c(O)c(C)c1C[P+](c1ccccc1)(c1ccccc1)c1ccccc1,survivor count,"T/C endpoint: mean survival time, dose: 100.0 mg/kg/injection, schedule: Q01DX009 (ip), vehicle: saline with Tween-80",0 of 6
same,survivor count,"T/C endpoint: mean survival time, dose: 200.0 mg/kg/injection, schedule: Q01DX009 (ip), vehicle: saline with Tween-80",0 of 6
same,survivor count,"T/C endpoint: mean survival time, dose: 400.0 mg/kg/injection, schedule: Q01DX009 (ip), vehicle: saline with Tween-80",0 of 6
COc1cc(N2C(=O)C=CC2=O)ccc1N1C(=O)C=CC1=O,survivor count,"T/C endpoint: mean survival time, dose: 20.0 mg/kg/injection, schedule: Q01DX001 (ip), vehicle: saline",1 of 6
same,survivor count,"T/C endpoint: mean survival time, dose: 40.0 mg/kg/injection, schedule: Q01DX001 (ip), vehicle: saline",0 of 6
same,survivor count,"T/C endpoint: mean survival time, dose: 80.0 mg/kg/injection, schedule: Q01DX001 (ip), vehicle: saline",0 of 6
same,survivor count,"T/C endpoint: mean survival time, dose: 100.0 mg/kg/injection, schedule: Q01DX001 (ip), vehicle: saline",0 of 6
same,survivor count,[1],0 of 6
same,survivor count,[3],0 of 6
CCC1CN1CC1CO1 (stereo not drawn),T/C,"T/C endpoint: mean survival time, dose: 15.0 mg/kg/injection, schedule: Q01DX Z (ip), vehicle: saline","111, 121, 126, 139 % of control"
same,T/C,"T/C endpoint: mean survival time, dose: 30.0 mg/kg/injection, schedule: Q01DX Z (ip), vehicle: saline",126 % of control
same,T/C,"T/C endpoint: mean survival time, dose: 33.0 mg/kg/injection, schedule: Q01DX Z (ip), vehicle: saline",125 % of control
same,survivor count,"T/C endpoint: mean survival time, dose: 113.0 mg/kg/injection, schedule: Q01DX Z (ip), vehicle: saline",5 of 6
O=C(Nc1ccccn1)Nc1cc(C(F)(F)F)ccc1Cl,survivor count,[4],3 of 3
same,survivor count,[5],3 of 3
O=N[O-].O=N[O-].[NH2-].[NH2-].[Pt+2],survivor count,"T/C endpoint: mean survival time, dose: 100.0 mg/kg/injection, schedule: Q01DX009 (ip), vehicle: Klucel (hydroxypropylcellulose) (HPC)",0 of 6
same,survivor count,[4],0 of 6
same,survivor count,[5],0 of 6
COc1cccc(/C=N/Nc2nnc(N/N=C/c3cccc(OC)c3)c3ccccc23)c1,survivor count,[2],2 of 4
O=C(O)/C=C/C(=O)Nc1ccc2c(c1)Cc1cc(NC(=O)C(F)(F)F)ccc1-2,survivor count,[3],4 of 6
C/C(=N\N=C(N)N)c1ccc(NC(=O)Nc2ccc(/C(C)=N/N=C(N)N)cc2)cc1,T/C,"T/C endpoint: mean survival time, dose: 18.0 mg/kg/injection, schedule: Q01DX009 (ip), vehicle: carboxymethylcellulose (CMC)",136 % of control
same,T/C,"T/C endpoint: mean survival time, dose: 20.0 mg/kg/injection, schedule: Q01DX009 (ip), vehicle: saline","123, 124, 132, 135 % of control"
same,T/C,"T/C endpoint: mean survival time, dose: 40.0 mg/kg/injection, schedule: Q01DX009 (ip), vehicle: saline","86, 108, 135, 151 % of control"
same,T/C,"T/C endpoint: mean survival time, dose: 63.0 mg/kg/injection, schedule: Q01DX015 (ip), vehicle: saline",145 % of control
same,T/C,"T/C endpoint: mean survival time, dose: 80.0 mg/kg/injection, schedule: Q01DX009 (ip), vehicle: saline","184, 190, 197, 209 % of control"
same,survivor count,"T/C endpoint: mean survival time, dose: 108.0 mg/kg/injection, schedule: Q01DX009 (ip), vehicle: water",3 of 10
same,T/C,"T/C endpoint: mean survival time, dose: 160.0 mg/kg/injection, schedule: Q01DX009 (ip), vehicle: saline","143, 151, 152, 234 % of control"
same,T/C,"T/C endpoint: mean survival time, dose: 178.0 mg/kg/injection, schedule: Q01DX001 (ip), vehicle: other",140 % of control
same,T/C,"T/C endpoint: mean survival time, dose: 178.0 mg/kg/injection, schedule: Q01DX001 (ip), vehicle: saline",141 % of control
same,survivor count,"T/C endpoint: mean survival time, dose: 180.0 mg/kg/injection, schedule: Q01DX009 (ip), vehicle: water",5 of 10
same,T/C,"T/C endpoint: mean survival time, dose: 267.0 mg/kg/injection, schedule: Q01DX001 (ip), vehicle: other",142 % of control
same,T/C,"T/C endpoint: mean survival time, dose: 267.0 mg/kg/injection, schedule: Q01DX001 (ip), vehicle: saline",127 % of control
same,survivor count,"T/C endpoint: mean survival time, dose: 300.0 mg/kg/injection, schedule: Q01DX009 (ip), vehicle: water",1 of 10
same,survivor count,"T/C endpoint: mean survival time, dose: 300.0 mg/kg/injection, schedule: Q01DX015 (ip), vehicle: saline",2 of 6
same,survivor count,"T/C endpoint: mean survival time, dose: 320.0 mg/kg/injection, schedule: Q01DX005 (ip), vehicle: saline",2 of 6
same,T/C,[6],87 [4 of 6 alive] and 148 % of control [4 of 6 alive]
same,survivor count,[6],4 of 6 and 5 of 6
same,T/C,[3],138 % of control
same,T/C,"T/C endpoint: mean survival time, dose: 600.0 mg/kg/injection, schedule: Q01DX001 (ip), vehicle: saline",148 % of control
same,T/C,"T/C endpoint: median survival time, dose: 25.0 mg/kg/injection, schedule: Q01DX009 (ip), vehicle: saline",135 and 137 % of control
same,T/C,"T/C endpoint: median survival time, dose: 45.0 mg/kg/injection, schedule: Q03HX024 (ip), vehicle: water, evaluated on day 6",146 % of control
same,T/C,"T/C endpoint: median survival time, dose: 45.0 mg/kg/injection, schedule: Q03HX024 (ip), vehicle: water, evaluated on day 50",146 % of control
same,T/C,"T/C endpoint: median survival time, dose: 50.0 mg/kg/injection, schedule: Q01DX009 (ip), vehicle: saline",140 % of control
